# Measurements from PubChem BioAssay AID1508600 (Functional Genomics Laboratory (NCATS/FGL), 2020).
# In all, about 53,000 sequences went through this assay and about 3,700 (7%) were called active.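 The calls were made as follows: active = gene knockdowns whose robust z-score for IL-1 alpha signal is at least 2 or at most -2, so actives lie on both sides; inactive = the rest.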 The list shows a part of the results.
# Assay: Components of the Cytosolic LPS Sensing Pathway: Gene Identification via Genome-wide siRNA Screen;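 also: robust z of the log signal after scaling to non-targeting control siRNA wells of the plate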
# Settings: RAW264.7 macrophages, IL-1a HTRF, actives lie on both sides, screened at 100 nM (by protocol), cells primed 5 h with Pam3CSK4 first
# In short: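 Cells (RAW264.7, 1×10^4 per well) were transfected with siRNA at 100 nM and cultured 48h at 37 degrees C. Pam3CSK4 was added for 5 hours; LipidA transfection followed for 24 hour. IL-1a was then measured by HTRF.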
row,Sequence,z-score
1,CCAUUACAGGGUUAUUGCATT against Rnf8,inactive: -0.127
2,GCUUUCUACACCAUUCUUATT against Olfr165,inactive: 0.52
3,GCCCUUGAACGGAGAAUAGTT against Brk1,inactive: -1.59
4,GGAGCUCAACAGUGAGAACTT against Specc1l,inactive: 0.299
5,GGUGAUGUACAAAGCCAAUTT against Gab3,inactive: 1.27
6,UAUGGACGCAUUGGAGCCATT against Olfr348,inactive: 0.384
7,GCAGUUUCGUUCCUACUCGTT against Cdkn2aipnl,inactive: 0.796
8,GCAUUAUCCAGAACUUAGATT against Sema3f,inactive: 0.902
9,UUUCCAGUCUCGCCCGAUUTT against Elmo1,inactive: 1.37
10,CCUGCUACUAUUGAAGUUGTT against Gtf3c2,inactive: 0.25
11,ACUUCUCCAAGCUGAACCUTT against Mettl7a2,inactive: -0.187
12,GGAGGAUCAAAAACUUGUUTT against Pomk,inactive: -0.828
13,AGCCUAGCCUUUUUUGUACTT against Mt2,inactive: -0.142
14,GGCCUUUAGUUUAAUCCUATT against Ubxn2a,inactive: -0.233
15,GAGGUACCUCUACACAGAUTT against Fgf21,inactive: -0.261
16,GGCUUCAAAGCAUGACCAGTT against Ccr1,inactive: -0.528
17,GCAAGUCAGCUACAACUGUTT against Rnasek,inactive: 0.0313
18,GCAUCAGAGAAGUGCGAGCTT against Pafah2,inactive: -0.0121
19,GGGACUUUCCAAACUAUAUTT against Irak1bp1,inactive: -1.52
20,GGUAAAGAGGGAAGAGAUCTT against Akr1d1,inactive: -0.875
21,GCUGGAUCACACUAUAUGUTT against Pgbd1,inactive: 0.127
22,GGUCAUUCAUAAGCUCCUGTT against Ncf1,inactive: -0.482

row,Sequence,z-score
1,CGUGUUCUAUGAUGGUAAUTT against Selenoo,inactive: -0.197
2,GGAAUUUUUUUCUUCGAUCTT against Sema3a,inactive: -0.0318
3,GGAGAAAACGUGAUGAGGATT against Snrnp200,inactive: -1.54
4,CCUCAUCGUAAGAGACAUATT against Arhgef2,inactive: -0.903
5,GGAAGAGAAGUAUUGAGGATT against Pdgfa,inactive: -0.873
6,GCCACACUUAAGUCAGACCTT against Tprn,inactive: 0.597
7,CCUAUCAAAUUAAAUGCGCTT against Muc13,inactive: -0.6
8,CCAACAGAACAAUCUGCAUTT against Olfr672,inactive: 1.84
9,GGAGCAGGAACAGUAUUUCTT against B4gat1,inactive: 0.731
10,GGAAUACCACAUGCUUUUGTT against Ldah,inactive: -0.288
11,GCAAUACGGAGUCUAGCCCTT against Hykk,inactive: 1.63
12,GGCUAUCUUUUCAGCUUUATT against Sox30,inactive: 0.212
13,GGUUAUAGACAUCCUUCAUTT against Acot5,inactive: 0.816
14,GCCAUUACCCAAGAACUUUTT against Acsm4,inactive: 0.121
15,GGUUCAUCUUCAGCCAUCCTT against Cdcp1,inactive: -0.905
16,GGCAAGAUUUAGAGAAGCATT against Dnah8,inactive: -0.665
17,GGGAAUGAAUGCUUUACAUTT against Aspn,inactive: 0.213
18,GGUCUUGGAGGAUCCCAAUTT against Tex13a,inactive: -1.55
19,GGAUGACUUCUUCAAGCCATT against Nmrk1,inactive: -0.485
20,CCUCUGUCAGUUGGUUAACTT against Mon2,active: -2.33
21,GGUGGUAACAUUAACUGAGTT against Cenpk,inactive: 0.41
22,GGUGUGGUCUAUGACACGUTT against Hdac5,inactive: 0.346

row,Sequence,z-score
1,CGCCAGGUCAAGGAAUGGUTT against Sh2d1b2,inactive: 1.24
2,GGACAAGCUGGAAUUAAACTT against Crocc,inactive: -0.179
3,GGAGAACUUCAGUGAGUCCTT against Ambp,active: -2.43
4,GGAUUAUGUGUCGUUUGGATT against Dnajc16,inactive: -0.17
5,GGCAGUGGAUGUACAAAAATT against Sh3bgrl2,inactive: -1.5
6,GGAGUCAGGGCUGAUACAUTT against Lpin3,inactive: 1.6
7,GGGAGUUCCAAUCAUUCUUTT against 2200002J24Rik,inactive: 0.667
8,GCAAACUCAAGGCAUACAUTT against A930017M01Rik,active: 4.27
9,GCGUAGCAGCCUACAGUCATT against Egflam,inactive: -1.44
10,GCCGAAGUAGCCAAAGCUATT against Clip2,inactive: -1.13
11,GCAAUACGAAGGCGAAAGCTT against P3h4,inactive: -1.68
12,GGCACUACUAAGAACCUUATT against Tmem69,inactive: 0.728
13,GGACCCUGACUCAUUGGCATT against Ubqln3,inactive: 0.164
14,GCAGCAUGUGAAAAGAAGGTT against 2010003K11Rik,inactive: -0.646
15,GGACAGUCAAACAGAGAAGTT against Sun1,inactive: -0.232
16,GGCACUUUAGUCUUUUCUCTT against Zfp296,inactive: -0.634
17,GGGACGAAUUCAGCAAUUUTT against Pcdha6,inactive: -0.253
18,GGAAUACAUCUACAAAGAGTT against Dock9,inactive: -1.7
19,GGUUGAGUUUCAGUGCAUCTT against Klhl28,inactive: -0.632
20,GGACUUGUCCAGCAUUGUATT against Donson,inactive: 0.771
21,GGCCAAUCAAGAGUAGUAUTT against Fgb,inactive: 1.76
22,GGACAUGUUUGGUGACUAUTT against Helq,inactive: -0.669

row,Sequence,z-score
1,GCCUUUUAGCUGUUCAGGATT against Nlrc5,inactive: 1.83
2,GGAAUUUAAAAGUAGCAAGTT against Zfp770,inactive: 1.94
3,GGAAGGACUGUCAAAUGGCTT against Med11,inactive: -0.171
4,GGCUCGUGAUCGAAAUCUUTT against Tmed1,inactive: -0.00483
5,GGACUGGUCCAUGAGAAGGTT against Klc4,inactive: 0.802
6,GGACUCGAGCACCAAAAAGTT against Dyrk1b,inactive: 1.44
7,GGAACUCCUGACAAAGAUGTT against Hscb,inactive: 0.708
8,GGAUCCUUCUCUAAGGGCCTT against Dgcr8,inactive: -0.416
9,GCAUCUACUAUCCAAGUGATT against Alox8,active: 2
10,GGAGAUUCUAAAGACAGAGTT against Zfp687,inactive: -0.149
11,GCUAAUGUGGAGGACUCACTT against Chml,inactive: -0.574
12,GCCUAUUGUGGUAUUACAUTT against Cyp2c40,inactive: -0.856
13,GGCAGAAAGCUGAUGAAGCTT against Pcx,inactive: -0.398
14,GCUGAGUUGGCUCAUCAACTT against Kdm2b,inactive: -0.134
15,GGAUUAAAGGAAGUGACUGTT against Oscar,inactive: -1.65
16,GCCAAGAAUAGCAUUACUGTT against Abraxas1,active: -2.45
17,GGUGUUCCUGUCUUUCAUGTT against Chordc1,inactive: -0.171
18,GGCCAUGUGAAGAUGGUGGTT against Ank1,inactive: 0.188
19,UGUAUUUUGUCAAUGUGGCTT against Olfr104-ps,inactive: 0.65
20,GUCUACAUCAACAUGCCUGTT against Hcst,inactive: 0.729
21,GGUGUUCAAAAUUCCUGCCTT against Mbl2,inactive: 0.0864
22,GGGCCUUAUACAUUUUUCATT against Calm1,inactive: 1.35

# Fetched one by one from above (three):
row,Sequence,z-score
20,GUCUACAUCAACAUGCCUGTT against Hcst,inactive: 0.729
3,GGAAGGACUGUCAAAUGGCTT against Med11,inactive: -0.171
1,GCCUUUUAGCUGUUCAGGATT against Nlrc5,inactive: 1.83

# (cont.)

row,Sequence,z-score
1,CCCUCUACAUGAUGACUGUTT against Olfr1280,inactive: 0.335
2,CGAAUAUGAUACCAGAAAGTT against Il5ra,inactive: -0.868
3,GGCUGUGUAUGAAACAUUUTT against Susd4,inactive: 0.954
4,GCCAGUGGUAAAAUUGUUATT against Fam114a2,inactive: 0.168
5,GCCUUGACCUGUCUUUCAATT against Tlr2,inactive: -0.161
6,GGAAGACGUAUUUGUACACTT against Ybx1,inactive: -0.523
7,GGCCAUGAGUCACAUGCUATT against Hcn3,inactive: -0.373
8,GGACGUGCUUACAUUGUACTT against Pcdhb9,inactive: -0.212
9,GCCUUGGCUGAAACUCUCATT against Cybb,inactive: 0.612
10,UAGGUUCAUUAUGGUGCCATT against Cnih4,inactive: -0.337
11,GGAAAAGACGGGAGAUUUGTT against Napepld,inactive: 1.37
12,GGACGAGAAACCAGUGACATT against Etaa1,inactive: -0.796
13,GCAGCUCAAUUAGAGUCCATT against Gart,inactive: -0.11
14,CGAUGAUCUUACACUACCCTT against Irx6,inactive: -0.164
15,GCUGGAAGUAGUCCAUACATT against Ufl1,inactive: -0.733
16,GGUCUAUAGGAAGAAAUGGTT against Kcnip3,inactive: -0.141
17,GCAUUAGGUAAAACUCUUATT against Plpp6,inactive: 1.9
18,GCGAUUGUUGCCUAUGGGUTT against Higd1a,inactive: 0.0263
19,GCAAUGUCUAUUCAAGGUUTT against Dpy19l1,inactive: 0.835

# Looked up above.
# z-score with GCUGGAAGUAGUCCAUACATT against Ufl1 reads inactive: -0.733
# z-score with GGUCUAUAGGAAGAAAUGGTT against Kcnip3 reads inactive: -0.141
# z-score with GCAGCUCAAUUAGAGUCCATT against Gart reads inactive: -0.11
# z-score with UAGGUUCAUUAUGGUGCCATT against Cnih4 reads inactive: -0.337
